Results published in publication PMC5430835.
Results are given in words; binding and its absence hold for the method and conditions named. Binding seen in cells or lysates may run through a third protein. Here binding means that the protein was enriched with, or labelled near, the bait; the list need not be complete.

Chains of the proteins cited; added tags and fusions are not shown.
UniProt Q8TEB1: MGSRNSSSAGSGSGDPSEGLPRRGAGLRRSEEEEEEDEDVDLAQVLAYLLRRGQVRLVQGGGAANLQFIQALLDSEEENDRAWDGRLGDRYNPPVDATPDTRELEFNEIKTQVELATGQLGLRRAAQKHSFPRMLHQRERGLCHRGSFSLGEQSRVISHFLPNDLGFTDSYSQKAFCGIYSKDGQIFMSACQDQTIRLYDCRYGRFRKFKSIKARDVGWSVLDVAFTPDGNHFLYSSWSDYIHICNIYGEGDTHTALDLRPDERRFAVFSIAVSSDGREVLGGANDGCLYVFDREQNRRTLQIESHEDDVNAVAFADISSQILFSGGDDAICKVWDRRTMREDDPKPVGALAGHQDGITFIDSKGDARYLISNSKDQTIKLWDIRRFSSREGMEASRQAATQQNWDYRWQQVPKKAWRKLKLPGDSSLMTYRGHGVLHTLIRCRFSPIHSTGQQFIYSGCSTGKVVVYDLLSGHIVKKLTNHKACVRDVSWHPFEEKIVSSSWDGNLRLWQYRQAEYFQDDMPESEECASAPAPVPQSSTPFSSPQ
UniProt P38936: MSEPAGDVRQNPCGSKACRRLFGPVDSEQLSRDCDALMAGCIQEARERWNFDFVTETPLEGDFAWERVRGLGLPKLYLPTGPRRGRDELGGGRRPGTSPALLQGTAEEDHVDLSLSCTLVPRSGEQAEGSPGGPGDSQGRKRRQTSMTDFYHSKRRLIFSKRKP

Biological target: Flag-HA-DCAF11 (UniProt Q8TEB1)
Experiment: affinity purification with mass spectrometry; Flag-HA-DCAF11 from transfected hFOB1.19, U2OS and Saos-2 cells; anti-Flag agarose, then anti-HA agarose (results); LC-MS/MS, MASCOT search

binding: binds
Substance: p21^Cip1 (from UniProt P38936 1-164)
